Measurements: PubChem BioAssay AID504594 (Broad Institute, 2011)
“And” between values parts separate entries of the source, which are not always exact repeats. Equal values may be shown once. Hit rate of the full screen: of about 2,000 compounds, fewer than 10 were called active.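 The calls were made as follows: active = growth inhibition of at least 75% in every replicate, which also brings the mean inhibition to 75% or more; inconclusive = mean inhibition 75% or more but some replicate under 75%; inactive = the rest.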 The list shows a part of the results.

Assay: growth inhibition of PfHsp90-dependent yeast, primary screen, antimalarial PfHsp90 inhibitor project, S. cerevisiae, BacTiter-Glo luminescence (AID 504594);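 also: 0% = DMSO neutral control wells and 100% = 20 µM radicicol control wells; higher value means stronger growth inhibition because the sign is flipped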
Details: S. cerevisiae expressing PfHsp90, BacTiter-Glo growth, 48 h; at 9.4 µM; hits give high values

Structure (SMILES) | growth inhibition
O=c1cc(Cn2ccnc2)c2cc3c(cc2o1)CCC3 | inactive: -2.19%
O=c1oc2c(CN3CCN(CCO)CC3)c(O)ccc2cc1-c1ccccn1 | inactive: -12.8%
CCOC(=O)c1cnc2ccc(C(=O)OC)cc2c1Nc1ccc2c(c1)OCCO2 | inactive: 4.33%
Cc1cccc(NC(=O)c2cc3ccccc3o2)c1 | inactive: -5.63%
c1ccc(CN(CC2=NCCN2)c2ccccc2)cc1 | inactive: 21.1% and inactive: -3%
O=C(NCCN1CCN(c2ccccc2)CC1)c1cccc(Br)c1 | inactive: 1.95%
CCOc1ccc(CCn2c(-c3ccco3)nc3ccccc3c2=O)cc1OCC | inactive: 19%
CC(C)CN1CCN(Cc2ccc3ncccc3c2)CC1CCO (stereo not given) | inactive: -15.2%
COc1ccc(/C=C2\CCn3c2nc2cc(C(=O)O)ccc2c3=O)cc1OC | inactive: -8.43%
CC(=O)OCC(=O)[C@H]1CC[C@H]2[C@@H]3CCC4=CC(=O)CC[C@]4(C)[C@H]3CC[C@]12C | inactive: -0.528%
CCOC(=O)Cn1c(C)cc(=O)c2ccccc21 | inactive: 16.7%
COc1cc2nc(-c3ccccc3)nc(N3CCCC3)c2cc1OC | inactive: 0.0822%
O=c1[nH]c(Cc2ccccc2)nc2c1oc1ccccc12 | inactive: 6.81%
C#C[C@]1(O)CC[C@H]2[C@@H]3CCC4=CC(=O)CC[C@@H]4[C@H]3CC[C@@]21CC | inactive: -2.31%
O=C(NO)c1ccccc1O | inactive: 1.98%
CC(C)C[C@H]1C(=O)N2CCC[C@H]2[C@]2(O)O[C@](NC(=O)[C@@H]3C=C4c5cccc6[nH]c(Br)c(c56)CC4N(C)C3)(C(C)C)C(=O)N12 (stereo not given in full) | inactive: 7.24%
CC(=O)OCC(=O)[C@@]1(OC(C)=O)[C@@H](C)C[C@H]2[C@@H]3C[C@H](F)C4=CC(=O)C=C[C@]4(C)[C@@]3(F)[C@@H](O)C[C@@]21C | inactive: -34.4%
CC(N=C(NC#N)Nc1ccncc1)C(C)(C)C (stereo not given) | inactive: 2.75%
COc1ccc(CN(C)CCc2ccccn2)cc1OC | inactive: 5.69%
S=C(NCc1ccccc1)NCc1cccc(CNC(=S)NCc2ccccc2)c1 | inactive: 0.496%
Oc1[nH]c2ccccc2c1N=Nc1ccccc1 | inactive: -5.94%
C=CCn1c(N2CCCCCC2)nc2c1c(=O)n(C)c(=O)n2C | inactive: 0.16%
CN1CCCC(OC(=O)c2ccc3c(c2)OCCO3)C1 (stereo not given) | inactive: -2.5%
COC(=O)c1ccccc1NC(=O)c1ccc(COc2ccc3c(c2)CCC3)cc1 | inactive: -17.4%
Cc1c2c(nc3c(C)cccc13)OC(C)C2 (stereo not given) | inactive: 8.19%

Exported with each value named: part of the list above
CC(=O)OCC(=O)[C@@]1(OC(C)=O)[C@@H](C)C[C@H]2[C@@H]3C[C@H](F)C4=CC(=O)C=C[C@]4(C)[C@@]3(F)[C@@H](O)C[C@@]21C
  growth inhibition: inactive: -34.4%
CC(N=C(NC#N)Nc1ccncc1)C(C)(C)C (stereo not given)
  growth inhibition: inactive: 2.75%
